These are literature values, as cited in patent US20060029684A1, “Synergistic treatment of DNA viral infections” (Henderson Morley Research and Development Limited, priority 1999, published 2006).

For this data set, the system named is plasma proteins, mainly albumin. As to conditions: cited from earlier work.

As to `NS(=O)(=O)c1cc(C(=O)O)c(NCc2ccco2)cc1Cl` [Frusemide, 4-chloro-N-furfuryl-5-sulfamoylanthranilic acid], for the setting “plasma concentrations 1 to 400 mcg/ml, healthy individuals”, the “bound to plasma proteins” value is 91-99%. Further, where the note is “therapeutic concentrations”, the unbound fraction is 2.3-4.1%.
